Measured data: PubChem BioAssay AID1259425 (University of Nebraska Medical Center, 2018)
Shown is a random part of about 14,000 deposited reagents. Not stated in the record: the time to read-out.

- Purpose: 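Find knockdowns that reproduce the gene expression pattern seen when KSR1 is lost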 (primary screen)
- Cells: HCT116 human colon cancer cells
- Reagents: siRNA pool against human genes, 50 nM siRNA
- Read-out: 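mRNA of six signature genes measured together by branched-DNA assay after 50 nM siRNA pool, blank removed, divided by geometric mean of two housekeeping genes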
- Direction: BNIP3L mRNA: higher = more BNIP3L transcript after knockdown; NDRG1 mRNA: higher = more NDRG1 transcript after knockdown; BNIP3 mRNA: higher = more BNIP3 transcript after knockdown; ALDOC mRNA: higher = more ALDOC transcript after knockdown; ACSL5 mRNA: higher = more ACSL5 transcript after knockdown

gene knocked down | BNIP3L mRNA, set 1 | NDRG1 mRNA, set 1 | BNIP3 mRNA, set 1 | ALDOC mRNA, set 1 | ACSL5 mRNA, set 1
AMN (amnion associated transmembrane protein) | 0.13 | 0.176 | 0.348 | 0.0171 | 0.118
PGBD3 (piggyBac transposable element derived 3) | 0.158 | 0.263 | 0.359 | 0.0519 | 0.23
LYZL1 (lysozyme like 1) | 0.0694 | 0.213 | 0.263 | 0.0402 | 0.272
CD300E (CD300e molecule) | 0.0502 | 0.15 | 0.296 | 0.0172 | 0.0821
TCF3 (transcription factor 3) | 0.0444 | 0.0721 | 0.229 | 0.00674 | 0.121
EEF1D (eukaryotic translation elongation factor 1 delta) | 0.0693 | 0.372 | 0.45 | 0.0316 | 0.163
TGIF2LX (TGFB induced factor homeobox 2 like X-linked) | 0.105 | 0.25 | 0.463 | 0.00601 | 0.219
GGCX (gamma-glutamyl carboxylase) | 0.0801 | 0.199 | 0.256 | 0.0127 | 0.232
BLCAP (BLCAP apoptosis inducing factor) | 0.108 | 0.102 | 0.286 | 0.00906 | 0.0886
RBMXL2 (RBMX like 2) | 0.135 | 0.12 | 0.277 | 0.0157 | 0.0737
PDE3B (phosphodiesterase 3B) | 0.102 | 0.0633 | 0.325 | 0.0307 | 0.0892
TNFAIP6 (TNF alpha induced protein 6) | 0.142 | 0.158 | 0.368 | 0.0174 | 0.154
ARHGEF9 (Cdc42 guanine nucleotide exchange factor 9) | 0.106 | 0.274 | 0.402 | 0.0139 | 0.169
F7 (coagulation factor VII) | 0.44 | 1.8 | 0.487 | 0.0659 | 0.314
MEF2A (myocyte enhancer factor 2A) | 0.126 | 0.0395 | 0.305 | 0.0205 | 0.147
CAMK4 (calcium/calmodulin dependent protein kinase IV) | 0.0891 | 0.15 | 0.378 | 0.00526 | 0.193
RPS6KA2 (ribosomal protein S6 kinase A2) | 0.13 | 0.37 | 0.499 | 0.0513 | 0.151
ERGIC2 (ERGIC and golgi 2) | 0.0776 | 0.0684 | 0.226 | 0.0176 | 0.0877
RASGRP4 (RAS guanyl releasing protein 4) | 0.0823 | 0.459 | 0.345 | 0.00948 | 0.222
FAAH (fatty acid amide hydrolase) | 0.0797 | 0.0762 | 0.335 | 0.0359 | 0.148
PRPF40A (pre-mRNA processing factor 40A) | 0.383 | 2.57 | 0.663 | 0.0856 | 0.288
LGALS14 (galectin 14) | 0.143 | 0.269 | 0.317 | 0.0385 | 0.19
NPFFR1 (neuropeptide FF receptor 1) | 0.146 | 0.725 | 0.305 | 0.0386 | 0.228
HNRNPA2B1 (heterogeneous nuclear ribonucleoprotein A2/B1) | 0.0197 | 0.0869 | 0.207 | 0.0602 | 0.0634
SKI (SKI proto-oncogene) | 0.088 | 0.185 | 0.261 | 0.0269 | 0.12
ADGB (androglobin) | 0.0522 | 0.108 | 0.228 | 0.0445 | 0.0616
PNKD (PNKD metallo-beta-lactamase domain containing) | 0.142 | 0.144 | 0.38 | 0.0289 | 0.131
GARIN1B (golgi associated RAB2 interactor 1B) | 0.18 | 0.389 | 0.388 | 0.0369 | 0.188
PCOLCE2 (procollagen C-endopeptidase enhancer 2) | 0.214 | 0.373 | 0.301 | 0.0417 | 0.33
ALDH1A1 (aldehyde dehydrogenase 1 family member A1) | 0.0973 | 0.123 | 0.229 | 0.0363 | 0.101
RSRC1 (arginine and serine rich coiled-coil 1) | 0.133 | 0.16 | 0.339 | 0.0519 | 0.284
FPR3 (formyl peptide receptor 3) | 0.0905 | 0.223 | 0.322 | 0.0209 | 0.11
SLC38A2 | 0.0949 | 0.105 | 0.242 | 0.0354 | 0.0706
GLUD1 (glutamate dehydrogenase 1) | 0.213 | 0.0788 | 0.298 | 0.00373 | 0.0497
TBPL1 (TATA-box binding protein like 1) | 0.0624 | 0.071 | 0.325 | 0.0182 | 0.122
GLIPR1 (GLI pathogenesis related 1) | 0.131 | 0.0621 | 0.211 | 0.00674 | 0.0945
ACER3 (alkaline ceramidase 3) | 0.0573 | 0.216 | 0.405 | 0.0311 | 0.156
SNX24 (sorting nexin 24) | 0.0723 | 0.0943 | 0.247 | 0.0195 | 0.0598
ACTL6A (actin like 6A) | 0.142 | 0.449 | 0.341 | 0.0315 | 0.266
AMPH (amphiphysin) | 0.143 | 0.269 | 0.4 | 0.0193 | 0.249
ABCC9 (ATP binding cassette subfamily C member 9) | 0.0689 | 0.135 | 0.185 | 0.0305 | 0.105
VPS8 (VPS8 subunit of CORVET complex) | 0.146 | 0.172 | 0.347 | 0.0416 | 0.11
FRA10AC1 (FRA10A associated CGG repeat 1) | 0.0765 | 0.279 | 0.312 | 0.0456 | 0.147
HSBP1 (heat shock factor binding protein 1) | 0.181 | 0.211 | 0.308 | 0.0137 | 0.184
DTWD1 (DTW motif tRNA-uridine aminocarboxypropyltransferase 1) | 0.126 | 0.349 | 0.37 | 0.024 | 0.354
GATA5 (GATA binding protein 5) | 0.0569 | 0.0501 | 0.276 | 0.00656 | 0.0783
HCAR1 (hydroxycarboxylic acid receptor 1) | 0.133 | 0.549 | 0.332 | 0.014 | 0.172
IQSEC1 (IQ motif and Sec7 domain ArfGEF 1) | 0.163 | 0.175 | 0.441 | 0.0582 | 0.347
SH2D1A (SH2 domain containing 1A) | 0.108 | 0.389 | 0.183 | 0.034 | 0.202
GPRC5A (G protein-coupled receptor class C group 5 member A) | 0.065 | 0.0937 | 0.19 | 0.0219 | 0.113
